This note sets out measurements from paper PMC3688503 (2013).

Experiment [1] deals with T1, myotubularin, endogenous in murine skeletal muscle (tibialis anterior) (mouse (endogenous in tibialis anterior muscle)) (UniProt Q9Z2C5).
T1 sequence: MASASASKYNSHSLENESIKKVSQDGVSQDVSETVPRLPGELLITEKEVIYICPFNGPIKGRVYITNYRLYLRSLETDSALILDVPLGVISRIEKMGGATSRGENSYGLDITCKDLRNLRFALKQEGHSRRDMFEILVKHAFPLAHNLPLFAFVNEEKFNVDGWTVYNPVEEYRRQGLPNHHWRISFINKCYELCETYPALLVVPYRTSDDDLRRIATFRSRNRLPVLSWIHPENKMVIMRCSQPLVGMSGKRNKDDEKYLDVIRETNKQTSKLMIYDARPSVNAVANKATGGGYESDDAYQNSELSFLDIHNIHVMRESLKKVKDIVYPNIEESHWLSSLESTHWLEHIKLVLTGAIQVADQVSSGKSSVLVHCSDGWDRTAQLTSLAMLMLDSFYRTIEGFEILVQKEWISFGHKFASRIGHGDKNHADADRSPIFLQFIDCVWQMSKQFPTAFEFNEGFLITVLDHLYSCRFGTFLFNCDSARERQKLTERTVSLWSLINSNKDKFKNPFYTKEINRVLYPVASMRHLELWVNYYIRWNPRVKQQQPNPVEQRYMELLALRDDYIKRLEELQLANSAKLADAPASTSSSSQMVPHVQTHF
Description: co-IP; endogenous proteins, fresh murine tibialis anterior muscle lysate in co-IP buffer with 0.05% SDS; immunoprecipitated with anti-myotubularin monoclonal 1G1, 4 C; last wash with 300 mM NaCl; controls IgG and empty beads.

Experiment [2] addresses T2, MTM1-GST (human myotubularin full-length protein as a GST fusion protein) (human) (UniProt Q13496).
T2 sequence: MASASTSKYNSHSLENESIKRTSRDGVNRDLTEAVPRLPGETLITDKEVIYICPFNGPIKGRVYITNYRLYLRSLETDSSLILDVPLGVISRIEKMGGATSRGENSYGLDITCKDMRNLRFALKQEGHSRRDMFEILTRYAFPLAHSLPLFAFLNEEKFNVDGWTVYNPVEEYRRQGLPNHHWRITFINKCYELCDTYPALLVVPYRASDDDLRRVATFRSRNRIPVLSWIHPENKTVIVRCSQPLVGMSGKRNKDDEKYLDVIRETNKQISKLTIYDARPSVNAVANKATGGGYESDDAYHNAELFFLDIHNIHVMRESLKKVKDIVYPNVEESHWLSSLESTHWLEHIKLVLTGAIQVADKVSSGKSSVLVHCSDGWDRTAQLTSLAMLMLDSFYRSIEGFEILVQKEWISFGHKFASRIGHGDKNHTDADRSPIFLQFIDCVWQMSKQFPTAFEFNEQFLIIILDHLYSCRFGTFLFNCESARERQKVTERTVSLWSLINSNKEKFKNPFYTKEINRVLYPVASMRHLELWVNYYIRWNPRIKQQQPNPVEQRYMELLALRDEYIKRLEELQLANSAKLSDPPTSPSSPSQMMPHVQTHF
The experiment is described as follows: pull-down; MTM1-GST or GST bound to glutathione beads, incubated with in vitro translated MTMR12-B10 diluted in Co-IP buffer (50 mM Tris-Cl pH 7.5, 100 mM NaCl, 5 mM EDTA, 5 mM EGTA, 1 mM DTT, 0.5% Triton X-100, 2 mM PMSF); only the target purified.

Experiment [3] deals with T3, MTM1 (myotubularin, over-expressed from pcDNA3.1-MTM1) (human) (UniProt Q13496).
T3 sequence: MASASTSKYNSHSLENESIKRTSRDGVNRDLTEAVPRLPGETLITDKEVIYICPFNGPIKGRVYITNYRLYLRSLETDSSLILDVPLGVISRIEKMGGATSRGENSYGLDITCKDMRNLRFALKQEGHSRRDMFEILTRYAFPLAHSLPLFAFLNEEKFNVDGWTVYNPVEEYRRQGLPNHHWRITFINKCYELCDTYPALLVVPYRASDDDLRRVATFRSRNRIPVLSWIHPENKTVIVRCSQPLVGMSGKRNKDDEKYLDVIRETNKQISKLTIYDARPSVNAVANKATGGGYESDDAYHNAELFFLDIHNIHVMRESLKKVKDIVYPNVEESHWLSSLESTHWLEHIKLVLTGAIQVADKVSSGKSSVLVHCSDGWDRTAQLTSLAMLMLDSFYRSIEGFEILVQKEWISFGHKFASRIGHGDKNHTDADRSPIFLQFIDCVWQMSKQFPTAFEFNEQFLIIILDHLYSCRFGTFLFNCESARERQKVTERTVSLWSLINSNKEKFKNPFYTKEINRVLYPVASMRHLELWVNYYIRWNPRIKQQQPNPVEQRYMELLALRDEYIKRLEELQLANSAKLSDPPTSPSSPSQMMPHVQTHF
Description: co-IP; MTM1 and MTMR12-B10 over-expressed in Cos1 cells (methods: Cos7); extracts immunoprecipitated with anti-myotubularin monoclonal 1G1; controls IgG and empty beads.

Experiment [4] deals with T4, wild-type MTM1-B10 fusion protein (human) (UniProt Q13496).
T4 sequence: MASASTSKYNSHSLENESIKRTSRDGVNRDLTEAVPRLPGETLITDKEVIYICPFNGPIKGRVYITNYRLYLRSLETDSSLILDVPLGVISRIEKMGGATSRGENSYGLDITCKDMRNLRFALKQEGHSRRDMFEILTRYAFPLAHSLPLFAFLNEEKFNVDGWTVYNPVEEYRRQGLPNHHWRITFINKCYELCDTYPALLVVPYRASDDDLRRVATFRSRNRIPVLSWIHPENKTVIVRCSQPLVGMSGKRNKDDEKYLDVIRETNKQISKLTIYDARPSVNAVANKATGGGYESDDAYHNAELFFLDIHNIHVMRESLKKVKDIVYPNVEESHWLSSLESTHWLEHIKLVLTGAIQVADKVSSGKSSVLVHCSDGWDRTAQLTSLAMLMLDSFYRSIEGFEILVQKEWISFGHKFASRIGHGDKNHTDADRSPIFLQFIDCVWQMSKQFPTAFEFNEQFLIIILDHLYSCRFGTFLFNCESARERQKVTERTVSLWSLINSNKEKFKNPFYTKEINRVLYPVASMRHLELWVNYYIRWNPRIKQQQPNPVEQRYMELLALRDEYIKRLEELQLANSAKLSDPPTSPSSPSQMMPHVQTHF
The experiment is described as follows: co-IP; wild-type or mutant MTM1-B10 co-expressed with MTMR12-GFP in Cos1 cells (text and methods: Cos7); immunoprecipitated with anti-B10 tag antibody (text: a myotubularin specific antibody).

No constants are given. Whether binding was seen depends on the method and setting. Binding seen in cells or lysates may run through a third protein. Some results given as binding are weak or reduced against the parent protein; the word gives no strength. For some of these results: Tags and fused reporters may be left off the sequences shown.

B1: MTMR12, endogenous in murine skeletal muscle (tibialis anterior) (protein, UniProt Q80TA6 1-747)
chain: MLGKGGVGGGGGTKAPKPSFVSYVRPEEIHTDEKEVTEKEVTLHLLPGEQLLCEASTVLKYVQEDSCQRGVYGRLVCTDFKISFLGDEDSALDNGGEAQFKNKIIGVNDVPLHCVDQIYGVFDEKKKPLFGQLKKYPEKLVIHCKDLRVLHFCLRYTKEEEVKRIVSGIIHHTQSPKLLKRLFLFSYAAAVHGTATDSRNCTVMFDTPKDWCWELERTKGSVKYRTVSVNEGYRVSDRLPAYFVVPTPLPEDDVRRFQGHGIPIWCWSCHNGSALLKMSALPKEQDDGALQVQKSFLDGIYKTIHRPPYEMVKTEDLSSNFLSLQEIQSAYCKFKQLFLIDNSSEFWDTDIKWFSLLESSSWLDIIRRCLKKAIEITECLEAQNVNVLLLEENASDLCCLLSSLVQVMMDAHCRTRTGFQSLIQKEWVMGGHSFLDRCNHLHQSDKEEVPIFLLFLDCVWQLVHQYPPAFEFTETYLTVLSDSLYIPIFSTFFFNSPHQKDTNMGRENLDAQSKPLTLLTVWDWSVQFEPKAQTLLRNPLYVEKPKLDRGQQKGSRFKHQRQLSLPLTQSKSSPKRGFFREETDHLIKNLLGKRISKLINSSDDLQDSSREFYDSWHSKPTDYHGLLLPHIEGPEIKVWAQRYLRWIPEAQILGGGRVATMGKLLEMMEEVQSLQEKIEARHHRQEAVHAEAPGLLRNSVRLSSLFPFALLQRHSAKPVLPTSGWKALGGEDDLAKREDEFVDLGDV
In the case of B1, the binding result in experiment [1] is “binds”.

B2: MTMR12-B10 (in vitro synthesized MTMR12 protein with a B10 tag) (protein, UniProt Q9C0I1 1-747)
chain: MLGKGVVGGGGGTKAPKPSFVSYVRPEEIHTNEKEVTEKEVTLHLLPGEQLLCEASTVLKYVQEDSCQHGVYGRLVCTDFKIAFLGDDESALDNDETQFKNKVIGENDITLHCVDQIYGVFDEKKKTLFGQLKKYPEKLIIHCKDLRVFQFCLRYTKEEEVKRIVSGIIHHTQAPKLLKRLFLFSYATAAQNNTVTDPKNHTVMFDTLKDWCWELERTKGNMKYKAVSVNEGYKVCERLPAYFVVPTPLPEENVQRFQGHGIPIWCWSCHNGSALLKMSALPKEQDDGILQIQKSFLDGIYKTIHRPPYEIVKTEDLSSNFLSLQEIQTAYSKFKQLFLIDNSTEFWDTDIKWFSLLESSSWLDIIRRCLKKAIEITECMEAQNMNVLLLEENASDLCCLISSLVQLMMDPHCRTRIGFQSLIQKEWVMGGHCFLDRCNHLRQNDKEEVPVFLLFLDCVWQLVHQHPPAFEFTETYLTVLSDSLYIPIFSTFFFNSPHQKDTNMGREGQDTQSKPLNLLTVWDWSVQFEPKAQTLLKNPLYVEKPKLDKGQRKGMRFKHQRQLSLPLTQSKSSPKRGFFREETDHLIKNLLGKRISKLINSSDELQDNFREFYDSWHSKSTDYHGLLLPHIEGPEIKVWAQRYLRWIPEAQILGGGQVATLSKLLEMMEEVQSLQEKIDERHHSQQAPQAEAPCLLRNSARLSSLFPFALLQRHSSKPVLPTSGWKALGDEDDLAKREDEFVDLGDV
Regarding B2, the binding entry in experiment [2] is “binds”.

B3: MTMR12-B10 (over-expressed in Cos1 cells) (protein, UniProt Q9C0I1 1-747)
chain: MLGKGVVGGGGGTKAPKPSFVSYVRPEEIHTNEKEVTEKEVTLHLLPGEQLLCEASTVLKYVQEDSCQHGVYGRLVCTDFKIAFLGDDESALDNDETQFKNKVIGENDITLHCVDQIYGVFDEKKKTLFGQLKKYPEKLIIHCKDLRVFQFCLRYTKEEEVKRIVSGIIHHTQAPKLLKRLFLFSYATAAQNNTVTDPKNHTVMFDTLKDWCWELERTKGNMKYKAVSVNEGYKVCERLPAYFVVPTPLPEENVQRFQGHGIPIWCWSCHNGSALLKMSALPKEQDDGILQIQKSFLDGIYKTIHRPPYEIVKTEDLSSNFLSLQEIQTAYSKFKQLFLIDNSTEFWDTDIKWFSLLESSSWLDIIRRCLKKAIEITECMEAQNMNVLLLEENASDLCCLISSLVQLMMDPHCRTRIGFQSLIQKEWVMGGHCFLDRCNHLRQNDKEEVPVFLLFLDCVWQLVHQHPPAFEFTETYLTVLSDSLYIPIFSTFFFNSPHQKDTNMGREGQDTQSKPLNLLTVWDWSVQFEPKAQTLLKNPLYVEKPKLDKGQRKGMRFKHQRQLSLPLTQSKSSPKRGFFREETDHLIKNLLGKRISKLINSSDELQDNFREFYDSWHSKSTDYHGLLLPHIEGPEIKVWAQRYLRWIPEAQILGGGQVATLSKLLEMMEEVQSLQEKIDERHHSQQAPQAEAPCLLRNSARLSSLFPFALLQRHSSKPVLPTSGWKALGDEDDLAKREDEFVDLGDV
For B3, the binding result in experiment [3] was “binds”.

B4: wild-type MTMR12-GFP protein (protein, UniProt Q9C0I1 1-747)
chain: MLGKGVVGGGGGTKAPKPSFVSYVRPEEIHTNEKEVTEKEVTLHLLPGEQLLCEASTVLKYVQEDSCQHGVYGRLVCTDFKIAFLGDDESALDNDETQFKNKVIGENDITLHCVDQIYGVFDEKKKTLFGQLKKYPEKLIIHCKDLRVFQFCLRYTKEEEVKRIVSGIIHHTQAPKLLKRLFLFSYATAAQNNTVTDPKNHTVMFDTLKDWCWELERTKGNMKYKAVSVNEGYKVCERLPAYFVVPTPLPEENVQRFQGHGIPIWCWSCHNGSALLKMSALPKEQDDGILQIQKSFLDGIYKTIHRPPYEIVKTEDLSSNFLSLQEIQTAYSKFKQLFLIDNSTEFWDTDIKWFSLLESSSWLDIIRRCLKKAIEITECMEAQNMNVLLLEENASDLCCLISSLVQLMMDPHCRTRIGFQSLIQKEWVMGGHCFLDRCNHLRQNDKEEVPVFLLFLDCVWQLVHQHPPAFEFTETYLTVLSDSLYIPIFSTFFFNSPHQKDTNMGREGQDTQSKPLNLLTVWDWSVQFEPKAQTLLKNPLYVEKPKLDKGQRKGMRFKHQRQLSLPLTQSKSSPKRGFFREETDHLIKNLLGKRISKLINSSDELQDNFREFYDSWHSKSTDYHGLLLPHIEGPEIKVWAQRYLRWIPEAQILGGGQVATLSKLLEMMEEVQSLQEKIDERHHSQQAPQAEAPCLLRNSARLSSLFPFALLQRHSSKPVLPTSGWKALGDEDDLAKREDEFVDLGDV
As for B4, the binding entry in experiment [4] is reported as “binds”.
